{
  "sequences": {"note": "Protein sequences, listed by entry. Tags and fused reporters are not part of them. Lines headed by an entry give the natural chain unless they say otherwise; changes in a name come on top.", "UniProt Q9Z0U4": "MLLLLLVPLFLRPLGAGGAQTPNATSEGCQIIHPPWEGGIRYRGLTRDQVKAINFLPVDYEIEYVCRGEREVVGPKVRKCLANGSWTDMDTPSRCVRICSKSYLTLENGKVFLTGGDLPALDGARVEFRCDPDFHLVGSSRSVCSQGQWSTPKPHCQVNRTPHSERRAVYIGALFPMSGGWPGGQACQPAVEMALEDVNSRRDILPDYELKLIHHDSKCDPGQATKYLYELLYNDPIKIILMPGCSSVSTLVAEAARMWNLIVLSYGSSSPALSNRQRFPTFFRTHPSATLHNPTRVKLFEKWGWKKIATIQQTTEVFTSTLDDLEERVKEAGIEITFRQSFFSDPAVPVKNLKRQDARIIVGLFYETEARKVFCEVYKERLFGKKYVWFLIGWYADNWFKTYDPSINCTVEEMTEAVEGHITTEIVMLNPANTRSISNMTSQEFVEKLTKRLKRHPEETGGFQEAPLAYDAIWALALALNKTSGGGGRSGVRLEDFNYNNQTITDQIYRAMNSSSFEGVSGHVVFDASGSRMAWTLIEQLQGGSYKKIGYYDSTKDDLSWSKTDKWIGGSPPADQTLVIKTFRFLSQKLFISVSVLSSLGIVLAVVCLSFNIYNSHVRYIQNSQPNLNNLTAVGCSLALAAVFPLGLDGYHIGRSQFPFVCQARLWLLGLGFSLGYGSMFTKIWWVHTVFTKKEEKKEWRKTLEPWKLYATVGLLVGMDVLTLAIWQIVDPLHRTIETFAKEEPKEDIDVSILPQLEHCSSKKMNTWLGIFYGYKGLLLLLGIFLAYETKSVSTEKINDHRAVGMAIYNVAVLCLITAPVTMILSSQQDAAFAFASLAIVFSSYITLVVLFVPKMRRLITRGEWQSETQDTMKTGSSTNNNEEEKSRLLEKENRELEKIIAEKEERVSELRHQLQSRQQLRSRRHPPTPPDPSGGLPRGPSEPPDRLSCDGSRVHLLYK"},
  "source": "paper PMC11711762",
  "binders": {"B1": {"name": "EYFP-MARCH1 (membrane-associated RING CH-type finger 1), wildtype (enzyme, UniProt Q8TCQ1 1-289)", "chain": "MLGWCEAIARNPHRIPNNTRTPEISGDLADASQTSTLNEKSPGRSASRSSNISKASSPTTGTAPRSQSRLSVCPSTQDICRICHCEGDEESPLITPCRCTGTLRFVHQSCLHQWIKSSDTRCCELCKYDFIMETKLKPLRKWEKLQMTTSERRKIFCSVTFHVIAITCVVWSLYVLIDRTAEEIKQGNDNGVLEWPFWTKLVVVAIGFTGGLVFMYVQCKVYVQLWRRLKAYNRVIFVQNCPDTAKKLEKNFSCNVNTDIKDAVVVPVPQTGANSLPSAEGGPPEVVSV"}},
  "target": "GABAB receptor heterodimer (HA-tagged GABAB1a and GABAB2) expressed in HEK-293 cells (UniProt Q9Z0U4)",
  "assay": "proximity ligation; in situ PLA (Duolink II) on fixed, permeabilised HEK-293 cells co-expressing GABAB1/GABAB2/MARCH1; antibodies against MARCH1 and GABAB1 or GABAB2; cells without MARCH1 as control for non-specific signal",
  "note": "Results are given in words; binding and its absence hold for the method and conditions named. Binding seen in cells or lysates may run through a third protein. Some results given as binding are weak or reduced against the parent protein; the word gives no strength. Tags and fused reporters may be left off the sequences shown.",
  "data": [
    {"binder": "B1", "values": [
      {"measurement": "binding", "result": "binds"}
    ]}
  ]
}
